Results as given in PMC7819943, “Rice protein-binding microarrays: a tool to detect cis-acting elements near promoter regions in rice”.
This is one part of the list.

What follows are sequences tested against T1, OsSMF1 (Oryza sativa, UniProt Q6ZLB0 1-436) (assay: protein-binding microarray (RPBM); PBS, 2% BSA, 51.3 ng/ul salmon testes DNA, 50 uM zinc acetate, 200 nM TF, 25 C, 1 h; high values mean tight binding). Conditions: protein: recombinant; tags: N-terminal polyhistidine and DsRed monomer fusion (pET32a); chain copies: 2; label: CyDye5-dUTP incorporated in the synthesized complementary strand; 3' TTTTT single-stranded linker to array surface; dsDNA, one strand shown.
T1 sequence: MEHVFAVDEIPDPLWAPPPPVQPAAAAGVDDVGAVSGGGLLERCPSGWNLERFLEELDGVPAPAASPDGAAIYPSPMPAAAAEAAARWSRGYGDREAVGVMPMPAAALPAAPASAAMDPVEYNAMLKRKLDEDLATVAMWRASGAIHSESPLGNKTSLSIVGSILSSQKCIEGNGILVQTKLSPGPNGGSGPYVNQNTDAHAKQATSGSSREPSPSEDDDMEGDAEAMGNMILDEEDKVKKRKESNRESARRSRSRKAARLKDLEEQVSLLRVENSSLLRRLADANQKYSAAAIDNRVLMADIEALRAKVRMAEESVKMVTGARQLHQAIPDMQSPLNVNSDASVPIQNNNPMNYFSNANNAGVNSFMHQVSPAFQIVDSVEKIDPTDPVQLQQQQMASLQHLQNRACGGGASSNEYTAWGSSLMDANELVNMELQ
In short: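 For the binding signal, per-feature fluorescence intensity was read in arbitrary units on an Axon 4000B scanner. Before scanning, a 2% BSA-blocked custom Agilent array made double-stranded with Cy5-dUTP was washed after 1 h at 25 °C with 200 nM protein and 50 µM zinc acetate. The proteins were Ni–NTA-purified transcription factors with N-terminal polyhistidine and DsRed fusions, expressed in E. coli BL21-CodonPlus.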

Row | Sequence | binding signal
1 | CACATCCTCAGATATCTTACTTCATCCAATATCCTGTCATCGGAGTCACCTAGTGCAG | 4410 fluorescence intensity (a.u.)
2 | CTAGCGCGAGCGCGCCGCCTCCACCGCCGCCCCAGCGTGCCGGAGTCACCTAGTGCAG | 3200 fluorescence intensity (a.u.)
3 | CGGCCGGAATGGTAACGCAGGCAGAACACGCCGCGCGTACCGGAGTCACCTAGTGCAG | 3490 fluorescence intensity (a.u.)
4 | CGCCTTATCCTCCCGCCTTTTCACGTCCCGCCACGCCGACCGGAGTCACCTAGTGCAG | 4060 fluorescence intensity (a.u.)
5 | GCCACCACCACCACCGTGACCTCGCGTCAGTCAGTCCCGTCGGAGTCACCTAGTGCAG | 3960 fluorescence intensity (a.u.)
6 | TTGCATCAAAAGGTCCTAGTGTGACTGCTTATGTTGCAGTCGGAGTCACCTAGTGCAG | 3900 fluorescence intensity (a.u.)
7 | CAATGGGCTGCGCCTTGACTGTACATCTGGGATGGGCTTACGGAGTCACCTAGTGCAG | 3830 fluorescence intensity (a.u.)
8 | GGGCGACGTGGCGCCATCCAGAGCGCGCCACGTCGCCCTCCGGAGTCACCTAGTGCAG | 11400 fluorescence intensity (a.u.)
9 | GGATGGGTTCACAGGCCACGTGGTGGACCATCTCCACCTCCGGAGTCACCTAGTGCAG | 7560 fluorescence intensity (a.u.)
10 | GAATAAGGGGTGATGCCATTGACATGTGGATCACACTGTTCGGAGTCACCTAGTGCAG | 3920 fluorescence intensity (a.u.)
11 | TTAATTCAGACTATATGCATGCGTGGATGACATAGCATCGCGGAGTCACCTAGTGCAG | 4310 fluorescence intensity (a.u.)
12 | ATCTAAACACATTGTAGTAGGTAATGTGTCATCTAATCTTCGGAGTCACCTAGTGCAG | 3670 fluorescence intensity (a.u.)
13 | TCAACGCAGCATTAACACGTTTGCTCCCCTCGAACCAGACCGGAGTCACCTAGTGCAG | 3640 fluorescence intensity (a.u.)
14 | TACAAAATCATCCATCAACCGCAAAATCAGATATCGACCGCGGAGTCACCTAGTGCAG | 3800 fluorescence intensity (a.u.)
15 | GTCTTGACTCATCCATGTACGTATGCGTATGCCACTACGACGGAGTCACCTAGTGCAG | 4940 fluorescence intensity (a.u.)
16 | GTCTACTTCCTTTGTAATCTGTTCTCATCATCATCAATCCCGGAGTCACCTAGTGCAG | 4180 fluorescence intensity (a.u.)
17 | TTGAACTCGCTGCTGCAAAACAGATGGCGTCAGGCGATGACGGAGTCACCTAGTGCAG | 22100 fluorescence intensity (a.u.)
18 | GTCCCAGCGAGACCAGCGGCGTGGCGTCATCTCATTCTAACGGAGTCACCTAGTGCAG | 4620 fluorescence intensity (a.u.)
19 | TCCATCTCTTATTTGCAACGTGTGTTGAGAAGGAAGAGACCGGAGTCACCTAGTGCAG | 3370 fluorescence intensity (a.u.)
20 | TCCGGTCCAGCCACTGCACACAGTGCGTGTCGTCGTTTCACGGAGTCACCTAGTGCAG | 4330 fluorescence intensity (a.u.)
21 | ATTTGCCATATTTTGACTAGATTTGATAGCCGAGGCTATACGGAGTCACCTAGTGCAG | 5240 fluorescence intensity (a.u.)
22 | CGCACTCCGCCCCGAACGCCATGGATTCCAGCTCGGCGAGCGGAGTCACCTAGTGCAG | 3360 fluorescence intensity (a.u.)
23 | TGATGGCATCGCGTATACACGAGTACACTGACATGCCTCCCGGAGTCACCTAGTGCAG | 3140 fluorescence intensity (a.u.)
24 | TCATCAAAGTACTGAACTGAATTGATTGCAGCGTGTCATCCGGAGTCACCTAGTGCAG | 3290 fluorescence intensity (a.u.)
25 | CCAGCTGCAATCTAATGACGTAATTAAAGCGAATCGAGAGCGGAGTCACCTAGTGCAG | 4400 fluorescence intensity (a.u.)
26 | ATGTGAAGAGAGGCATAAATCATCATAATCATGGCAGCTGCGGAGTCACCTAGTGCAG | 3180 fluorescence intensity (a.u.)
27 | TGTTTAGAGGTGGTGACTCTTATTTGTAATCGTTGTTTGGCGGAGTCACCTAGTGCAG | 5540 fluorescence intensity (a.u.)

Row | Sequence | binding signal
28 | CCACGTCCTTCTCCTCTAGGCCTCCCTGACGTCACGGTCGCGGAGTCACCTAGTGCAG | 14500 fluorescence intensity (a.u.)
29 | CTCGCCGCCGCGTGGATCCATCTCATCCCCTCGCCGCCGACGGAGTCACCTAGTGCAG | 6080 fluorescence intensity (a.u.)
30 | ATATATATATATATATATATATACACTATATACTATACCGCGGAGTCACCTAGTGCAG | 3260 fluorescence intensity (a.u.)
31 | AGAACTAATTTAACACGTAACAAAAGTTTAATGACCGAATCGGAGTCACCTAGTGCAG | 3580 fluorescence intensity (a.u.)
32 | GAGGCCACCACACAGGGAACAACACGTGGCGGACGCAACGCGGAGTCACCTAGTGCAG | 6200 fluorescence intensity (a.u.)
33 | GTTTTCTCGGGATAGGTGAGGTGTAAGTCCGAAGTTCCAACGGAGTCACCTAGTGCAG | 3150 fluorescence intensity (a.u.)
34 | ATTTCTTCTCTCCCATCACATGACACGGTCTTCTCTACTTCGGAGTCACCTAGTGCAG | 4310 fluorescence intensity (a.u.)
35 | CCCTAAACTCAGCACGTGTACTTCCGTGATAGGTGTTTAGCGGAGTCACCTAGTGCAG | 4240 fluorescence intensity (a.u.)
36 | CCGCACCAGCGCGCTCGTGCGCGCGGAGCTGGACGCGCTCCGGAGTCACCTAGTGCAG | 3320 fluorescence intensity (a.u.)
37 | TCCAGATCAAATCCGACGGCCCAGGATACGCCACGTCACCCGGAGTCACCTAGTGCAG | 46700 fluorescence intensity (a.u.)
38 | TTGTTTTATTAAATTCTTGCTAACACTACGTGTCATGCTGCGGAGTCACCTAGTGCAG | 8200 fluorescence intensity (a.u.)
39 | AACTTTCTGCCATCCTGCCTTCCCAGATCACAAATTCACACGGAGTCACCTAGTGCAG | 8410 fluorescence intensity (a.u.)
40 | CTCAACTGCTATGTCACCAATGCCTACATCCGCATTGACACGGAGTCACCTAGTGCAG | 4640 fluorescence intensity (a.u.)
41 | GATTTCTGTTTATTCCGATCTGTTAGACTGCTAGTCCCTACGGAGTCACCTAGTGCAG | 3730 fluorescence intensity (a.u.)
42 | GCGCGACGCCAGCGTCGCCGTCGTGCGTGGCGTGACGCCGCGGAGTCACCTAGTGCAG | 4096 fluorescence intensity (a.u.)
43 | TGTCCGCGCCACGTGGCAGGCGGCCGCTCATCCGTCGTGCCGGAGTCACCTAGTGCAG | 26000 fluorescence intensity (a.u.)
44 | CTCCTTCTGCTGTACACCTCGCGCAACTACTCCCTCCGTCCGGAGTCACCTAGTGCAG | 3490 fluorescence intensity (a.u.)
45 | GCCTCGTTTGATTGGTCACATGCATGGAAAGAGACTCACACGGAGTCACCTAGTGCAG | 16700 fluorescence intensity (a.u.)
46 | ATATTGTTGAATTGAGTAGTATCGTGTCATCGTTGAAAGGCGGAGTCACCTAGTGCAG | 21500 fluorescence intensity (a.u.)
47 | GTGTTGTCAACTCGTCACCCTTCTCCGCGTGCACGCTTTCCGGAGTCACCTAGTGCAG | 5040 fluorescence intensity (a.u.)
48 | TCTCTCTCGTAACTTCTCTCCTCCACCTCATCATATAATCCGGAGTCACCTAGTGCAG | 5460 fluorescence intensity (a.u.)
49 | TGTTCGTAGCAGTCGCTACGTCATTAGCTTCAACCGTTTTCGGAGTCACCTAGTGCAG | 11000 fluorescence intensity (a.u.)
50 | TATATATATATATATATATAGATTTATTGACATCTATATGCGGAGTCACCTAGTGCAG | 3660 fluorescence intensity (a.u.)
51 | CACCGAGCCTTCACGCGACGGCGGAAGAGATGACCGGCGGCGGAGTCACCTAGTGCAG | 5500 fluorescence intensity (a.u.)
52 | ACAATGTGAGACGCACTTGATAGTGAAAGTGAGGTGGCAACGGAGTCACCTAGTGCAG | 6950 fluorescence intensity (a.u.)
53 | AATCACAACTTTGCTTTCATCCACGTCGACAACATATACACGGAGTCACCTAGTGCAG | 12500 fluorescence intensity (a.u.)
54 | CTAGAGGCGCTCTCCCATGCCACGTCATACGGCTGGCCCCCGGAGTCACCTAGTGCAG | 32200 fluorescence intensity (a.u.)

Shown with tabs: part of the list above.
Row	Sequence	binding signal
5	GCCACCACCACCACCGTGACCTCGCGTCAGTCAGTCCCGTCGGAGTCACCTAGTGCAG	3960 fluorescence intensity (a.u.)
6	TTGCATCAAAAGGTCCTAGTGTGACTGCTTATGTTGCAGTCGGAGTCACCTAGTGCAG	3900 fluorescence intensity (a.u.)
7	CAATGGGCTGCGCCTTGACTGTACATCTGGGATGGGCTTACGGAGTCACCTAGTGCAG	3830 fluorescence intensity (a.u.)
8	GGGCGACGTGGCGCCATCCAGAGCGCGCCACGTCGCCCTCCGGAGTCACCTAGTGCAG	11400 fluorescence intensity (a.u.)
